Data: paper PMC8996536
These are yes or no findings as the source states them, for the method shown. Binding seen in cells or lysates may run through a third protein. Some binding calls cover weakened binding; strength is not graded here.

By UniProt entry, the sequences of proteins in these tests, tags left out.
UniProt P67809: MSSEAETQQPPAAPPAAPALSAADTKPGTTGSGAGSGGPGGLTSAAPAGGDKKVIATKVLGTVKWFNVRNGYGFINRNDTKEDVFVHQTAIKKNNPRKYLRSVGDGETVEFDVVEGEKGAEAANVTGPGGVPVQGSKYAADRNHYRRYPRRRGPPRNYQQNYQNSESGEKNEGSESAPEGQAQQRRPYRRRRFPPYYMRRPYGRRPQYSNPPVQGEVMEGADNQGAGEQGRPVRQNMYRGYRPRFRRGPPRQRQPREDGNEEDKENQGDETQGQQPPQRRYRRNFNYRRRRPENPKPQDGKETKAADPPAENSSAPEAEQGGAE

Biological target: T1, SET domain containing 3 (human (endogenous in A549)) (UniProt Q86TU7)
T1 sequence: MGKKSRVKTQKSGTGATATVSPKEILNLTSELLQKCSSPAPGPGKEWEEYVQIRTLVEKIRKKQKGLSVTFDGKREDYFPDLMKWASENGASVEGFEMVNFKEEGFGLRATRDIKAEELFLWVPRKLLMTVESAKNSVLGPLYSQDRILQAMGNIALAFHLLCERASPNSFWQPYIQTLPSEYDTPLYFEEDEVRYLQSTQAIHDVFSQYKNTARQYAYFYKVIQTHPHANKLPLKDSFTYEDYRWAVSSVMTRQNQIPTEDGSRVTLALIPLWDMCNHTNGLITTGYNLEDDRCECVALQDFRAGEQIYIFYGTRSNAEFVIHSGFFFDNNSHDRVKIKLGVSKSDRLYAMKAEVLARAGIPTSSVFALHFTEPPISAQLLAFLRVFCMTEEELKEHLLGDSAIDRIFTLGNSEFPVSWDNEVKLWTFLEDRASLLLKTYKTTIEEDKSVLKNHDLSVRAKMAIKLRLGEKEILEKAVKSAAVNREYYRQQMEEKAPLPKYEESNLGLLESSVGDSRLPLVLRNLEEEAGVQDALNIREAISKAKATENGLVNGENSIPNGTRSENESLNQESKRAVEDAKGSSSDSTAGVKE
Experiment: co-IP; cell lysates incubated with Dynabeads Protein G conjugated with SETD3 antibody at 4 °C overnight; washed four times with lysis buffer; SDS-PAGE and western blot; in the presence of wild-type or K264A mutant YBX1

binding: binds
Substance: wild-type YBX1 protein (from UniProt P67809 1-324)
